# In the supplement of paper PMC8728848:
# This is one part of the list.
# Experiments:
# Assay in all cases: glycan array binding signal (z-score within array); higher = stronger binding
# Conditions in all cases: glycan notation: IUPAC condensed, linker removed
# [1] = target: Gal(b1-4)GlcNAc(b1-6)GalNAc
# In short: (§1)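 Columns mapping to the same glycan were averaged after glycan names were converted to IUPAC-condensed notation. The data come from 3228 arrays in the Consortium for Functional Glycomics database, limited to those with an available protein sequence. Binding is reported as a within-array Z-score averaged across arrays of one protein sequence and across linkers.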
# [2] = target: Gal(b1-4)GlcNAc(b1-6)[Gal(b1-3)]GalNAc
# In short: as §1
# [3] = target: Gal(b1-4)GlcNAc(b1-6)[Gal(b1-3)]GlcNAc
# In short: as §1
# [4] = target: Gal3S(b1-3)GalNAc
# In short: as §1
# [5] = target: Gal3S(b1-3)GlcNAc
# In short: as §1
# [6] = target: Gal3S(b1-3)[Fuc(a1-4)]GlcNAc
# In short: as §1
# [7] = target: Gal3S(b1-4)Glc
# In short: as §1
# [8] = target: Gal3S(b1-4)Glc6S
# In short: as §1
# [9] = target: Gal3S(b1-4)GlcNAc
# In short: as §1
# [10] = target: Gal3S(b1-4)GlcNAc6S
# In short: as §1
# [11] = target: Gal3S6S(b1-4)GlcNAc
# In short: as §1
# [12] = target: Gal3S6S(b1-4)GlcNAc6S
# In short: as §1
# [13] = target: Gal4S(b1-4)GlcNAc
# In short: as §1
# [14] = target: Gal4S6S(b1-4)GlcNAc
# In short: as §1
# [15] = target: Gal6S(b1-4)Glc
# In short: as §1
# [16] = target: Gal6S(b1-4)Glc6S
# In short: as §1
# [17] = target: Gal6S(b1-4)GlcNAc
# In short: as §1
# [18] = target: GalNAc(a1-3)Gal
# In short: as §1
# [19] = target: GalNAc(a1-3)GalNAc
# In short: as §1
# [20] = target: GalNAc(b1-3)Gal(a1-4)Gal(b1-4)GlcNAc
# In short: as §1
# [21] = target: GalNAc(b1-4)GlcNAc
# In short: as §1
# [22] = target: Glc(a1-4)Glc
# In short: as §1
# [23] = target: Glc(a1-6)Glc(a1-6)Glc
# In short: as §1
# [24] = target: Glc(b1-4)Glc
# In short: as §1
# [25] = target: Glc(b1-6)Glc
# In short: as §1
# [26] = target: GlcA(b1-3)Gal
# In short: as §1
# [27] = target: GlcA(b1-6)Gal
# In short: as §1
# [28] = target: GlcNAc(a1-3)Gal(b1-4)GlcNAc
# In short: as §1
# [29] = target: GlcNAc(a1-6)Gal(b1-4)GlcNAc
# In short: as §1
# [30] = target: GlcNAc(b1-2)Gal(b1-3)GlcNAc
# In short: as §1
# [31] = target: GlcNAc(b1-2)Man(a1-3)[GlcNAc(b1-2)Man(a1-6)]Man(b1-4)GlcNAc(b1-4)GlcNAc
# In short: as §1
# [32] = target: GlcNAc(b1-3)Gal
# In short: as §1
# [33] = target: GlcNAc(b1-3)Gal(b1-3)GalNAc
# In short: as §1
# [34] = target: GlcNAc(b1-3)Gal(b1-4)Glc
# In short: as §1
# [35] = target: GlcNAc(b1-3)Gal(b1-4)GlcNAc
# In short: as §1
# [36] = target: GlcNAc(b1-3)Gal(b1-4)GlcNAc(b1-3)Gal(b1-4)GlcNAc
# In short: as §1
# [37] = target: GlcNAc(b1-3)GalNAc
# In short: as §1
# [38] = target: GlcNAc(b1-3)[GlcNAc(b1-4)][GlcNAc(b1-6)]GlcNAc
# In short: as §1
# [39] = target: GlcNAc(b1-3)[GlcNAc(b1-6)]Gal(b1-4)GlcNAc
# In short: as §1
# [40] = target: GlcNAc(b1-3)[GlcNAc(b1-6)]GlcNAc
# In short: as §1
# [41] = target: GlcNAc(b1-4)Gal(b1-4)GlcNAc
# In short: as §1
# [42] = target: GlcNAc(b1-4)GlcNAc(b1-4)GlcNAc
# In short: as §1
# [43] = target: GlcNAc(b1-4)GlcNAc(b1-4)GlcNAc(b1-4)GlcNAc(b1-4)GlcNAc
# In short: as §1
# [44] = target: GlcNAc(b1-4)GlcNAc(b1-4)GlcNAc(b1-4)GlcNAc(b1-4)GlcNAc(b1-4)GlcNAc
# In short: as §1
# [45] = target: GlcNAc(b1-4)[GlcNAc(b1-6)]GalNAc
# In short: as §1
# [46] = target: GlcNAc(b1-6)Gal(b1-4)GlcNAc
# In short: as §1
# [47] = target: GlcNAc(b1-6)GalNAc
# In short: as §1
# [48] = target: Kdn(a2-3)Gal(b1-3)GlcNAc
# In short: as §1
# [49] = target: Kdn(a2-3)Gal(b1-4)GlcNAc
# In short: as §1
# [50] = target: Man(a1-2)Man(a1-2)Man(a1-3)Man
# In short: as §1
# [51] = target: Man(a1-2)Man(a1-2)Man(a1-3)[Man(a1-2)Man(a1-3)[Man(a1-2)Man(a1-6)]Man(a1-6)]Man(b1-4)GlcNAc(b1-4)GlcNAc
# In short: as §1
# [52] = target: Man(a1-2)Man(a1-2)Man(a1-3)[Man(a1-2)Man(a1-6)[Man(a1-3)]Man(a1-6)]Man(b1-4)GlcNAc(b1-4)GlcNAc
# In short: as §1
# [53] = target: Man(a1-2)Man(a1-2)Man(a1-6)[Man(a1-3)]Man
# In short: as §1
# [54] = target: Man(a1-2)Man(a1-3)Man
# In short: as §1
# [55] = target: Man(a1-2)Man(a1-3)[Man(a1-2)Man(a1-6)]Man
# In short: as §1
# [56] = target: Man(a1-2)Man(a1-3)[Man(a1-3)[Man(a1-6)]Man(a1-6)]Man(b1-4)GlcNAc(b1-4)GlcNAc
# In short: as §1
# [57] = target: Man(a1-2)Man(a1-3)[Man(a1-6)]Man(a1-6)[Man(a1-2)Man(a1-3)]Man(b1-4)GlcNAc(b1-4)GlcNAc
# In short: as §1
# [58] = target: Man(a1-3)[Man(a1-6)]Man
# In short: as §1
binder,measurement,setting,value
"FBG2 (Homo sapiens), Q9NRD1 (protein) MDAPHSKAALDSINELPENILLELFTHVPARQLLLNCRLVCSLWRDLIDLMTLWKRKCLREGFITKDWDQPVADWKIFYFLRSLHRNLLRNPCAEEDMFAWQIDFNGGDRWKVESLPGAHGTDFPDPKVKKYFVTSYEMCLKSQLVDLVAEGYWEELLDTFRPDIVVKDWFAARADCGCTYQLKVQLASADYFVLASFEPPPVTIQQWNNATWTEVSYTFSDYPRGVRYILFQHGGRDTQYWAGWYGPRVTNSSIVVSPKMTRNQASSEAQPGQKHGQEEAAQSPYRAVVQIFPPPVTIQQWNNATWTEVSYTFSDYPRGVRYILFQHGGRDTQYWAGWYGPRVTNSSIVVSPKMTRNQASSEAQPGQKHGQEEAAQSPYRAVVQI",glycan array binding signal (z-score),[1],-0.818
same,glycan array binding signal (z-score),[2],-0.633
same,glycan array binding signal (z-score),[3],-0.558
same,glycan array binding signal (z-score),[4],0.136
same,glycan array binding signal (z-score),[5],-0.075
same,glycan array binding signal (z-score),[6],1.01
same,glycan array binding signal (z-score),[7],1.16
same,glycan array binding signal (z-score),[8],1.95
same,glycan array binding signal (z-score),[9],0.144
same,glycan array binding signal (z-score),[10],2.42
same,glycan array binding signal (z-score),[11],2.1
same,glycan array binding signal (z-score),[12],3.2
same,glycan array binding signal (z-score),[13],0.389
same,glycan array binding signal (z-score),[14],2.35
same,glycan array binding signal (z-score),[15],0.826
same,glycan array binding signal (z-score),[16],2.67
same,glycan array binding signal (z-score),[17],1.2
same,glycan array binding signal (z-score),[18],-0.783
same,glycan array binding signal (z-score),[19],-0.565
same,glycan array binding signal (z-score),[20],-0.357
same,glycan array binding signal (z-score),[21],-0.387
same,glycan array binding signal (z-score),[22],-0.594
same,glycan array binding signal (z-score),[23],-0.091
same,glycan array binding signal (z-score),[24],-0.116
same,glycan array binding signal (z-score),[25],-0.213
same,glycan array binding signal (z-score),[26],0.042
same,glycan array binding signal (z-score),[27],0.055
same,glycan array binding signal (z-score),[28],-0.575
same,glycan array binding signal (z-score),[29],-0.895
same,glycan array binding signal (z-score),[30],-0.723
same,glycan array binding signal (z-score),[31],0.654
same,glycan array binding signal (z-score),[32],-0.443
same,glycan array binding signal (z-score),[33],-0.57
same,glycan array binding signal (z-score),[34],-0.564
same,glycan array binding signal (z-score),[35],-0.035
same,glycan array binding signal (z-score),[36],0.244
same,glycan array binding signal (z-score),[37],-0.923
same,glycan array binding signal (z-score),[38],0.103
same,glycan array binding signal (z-score),[39],-0.229
same,glycan array binding signal (z-score),[40],-0.406
same,glycan array binding signal (z-score),[41],-0.843
same,glycan array binding signal (z-score),[42],-0.555
same,glycan array binding signal (z-score),[43],0.601
same,glycan array binding signal (z-score),[44],0.185
same,glycan array binding signal (z-score),[45],-0.787
same,glycan array binding signal (z-score),[46],-0.91
same,glycan array binding signal (z-score),[47],-0.884
same,glycan array binding signal (z-score),[48],-0.553
same,glycan array binding signal (z-score),[49],-0.424
same,glycan array binding signal (z-score),[50],-0.639
same,glycan array binding signal (z-score),[51],3.27
same,glycan array binding signal (z-score),[52],3.69
same,glycan array binding signal (z-score),[53],-0.643
same,glycan array binding signal (z-score),[54],-0.732
same,glycan array binding signal (z-score),[55],-0.407
same,glycan array binding signal (z-score),[56],2.99
same,glycan array binding signal (z-score),[57],3.61
same,glycan array binding signal (z-score),[58],-0.683

# A second format for some results above.
binder	measurement	setting	value
FBG2 (Homo sapiens), Q9NRD1 (protein) MDAPHSKAALDSINELPENILLELFTHVPARQLLLNCRLVCSLWRDLIDLMTLWKRKCLREGFITKDWDQPVADWKIFYFLRSLHRNLLRNPCAEEDMFAWQIDFNGGDRWKVESLPGAHGTDFPDPKVKKYFVTSYEMCLKSQLVDLVAEGYWEELLDTFRPDIVVKDWFAARADCGCTYQLKVQLASADYFVLASFEPPPVTIQQWNNATWTEVSYTFSDYPRGVRYILFQHGGRDTQYWAGWYGPRVTNSSIVVSPKMTRNQASSEAQPGQKHGQEEAAQSPYRAVVQIFPPPVTIQQWNNATWTEVSYTFSDYPRGVRYILFQHGGRDTQYWAGWYGPRVTNSSIVVSPKMTRNQASSEAQPGQKHGQEEAAQSPYRAVVQI	glycan array binding signal (z-score)	[44]	0.185
same	glycan array binding signal (z-score)	[54]	-0.732
